Test results published in the supplement of paper PMC10849652.
Some of the results follow.

Chains of the proteins cited; added tags and fusions are not shown. Lines headed by an entry give the natural chain unless they say otherwise; changes in a name come on top.
UniProt Q969L4: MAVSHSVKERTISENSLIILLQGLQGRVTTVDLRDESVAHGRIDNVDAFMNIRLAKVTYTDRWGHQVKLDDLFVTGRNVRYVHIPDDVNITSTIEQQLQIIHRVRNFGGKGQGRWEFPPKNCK
UniProt Q02779: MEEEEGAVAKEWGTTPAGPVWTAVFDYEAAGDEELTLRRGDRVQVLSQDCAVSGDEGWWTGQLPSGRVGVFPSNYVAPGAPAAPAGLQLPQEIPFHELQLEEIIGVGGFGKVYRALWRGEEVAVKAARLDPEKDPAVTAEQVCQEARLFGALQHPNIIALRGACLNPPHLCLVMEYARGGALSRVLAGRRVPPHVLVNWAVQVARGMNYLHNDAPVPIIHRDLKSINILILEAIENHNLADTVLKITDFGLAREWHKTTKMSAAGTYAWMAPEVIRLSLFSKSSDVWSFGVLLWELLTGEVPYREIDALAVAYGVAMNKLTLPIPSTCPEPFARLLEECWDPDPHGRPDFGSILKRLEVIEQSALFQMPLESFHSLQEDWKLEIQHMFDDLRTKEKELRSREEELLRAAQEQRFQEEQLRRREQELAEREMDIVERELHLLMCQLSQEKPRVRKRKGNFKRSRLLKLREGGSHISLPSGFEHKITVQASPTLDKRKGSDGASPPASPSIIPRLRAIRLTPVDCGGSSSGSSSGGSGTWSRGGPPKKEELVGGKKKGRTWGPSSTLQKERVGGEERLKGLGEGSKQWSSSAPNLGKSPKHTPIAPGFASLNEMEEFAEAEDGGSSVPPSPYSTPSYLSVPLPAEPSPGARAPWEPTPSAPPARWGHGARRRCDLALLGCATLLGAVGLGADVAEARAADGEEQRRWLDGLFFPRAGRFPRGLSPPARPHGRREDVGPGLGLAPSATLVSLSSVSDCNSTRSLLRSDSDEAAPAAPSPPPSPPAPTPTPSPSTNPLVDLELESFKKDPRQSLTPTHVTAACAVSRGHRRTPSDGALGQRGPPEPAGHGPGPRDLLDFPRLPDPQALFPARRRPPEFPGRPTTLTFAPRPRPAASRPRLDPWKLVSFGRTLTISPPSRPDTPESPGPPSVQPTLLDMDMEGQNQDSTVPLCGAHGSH
UniProt Q5TCQ9: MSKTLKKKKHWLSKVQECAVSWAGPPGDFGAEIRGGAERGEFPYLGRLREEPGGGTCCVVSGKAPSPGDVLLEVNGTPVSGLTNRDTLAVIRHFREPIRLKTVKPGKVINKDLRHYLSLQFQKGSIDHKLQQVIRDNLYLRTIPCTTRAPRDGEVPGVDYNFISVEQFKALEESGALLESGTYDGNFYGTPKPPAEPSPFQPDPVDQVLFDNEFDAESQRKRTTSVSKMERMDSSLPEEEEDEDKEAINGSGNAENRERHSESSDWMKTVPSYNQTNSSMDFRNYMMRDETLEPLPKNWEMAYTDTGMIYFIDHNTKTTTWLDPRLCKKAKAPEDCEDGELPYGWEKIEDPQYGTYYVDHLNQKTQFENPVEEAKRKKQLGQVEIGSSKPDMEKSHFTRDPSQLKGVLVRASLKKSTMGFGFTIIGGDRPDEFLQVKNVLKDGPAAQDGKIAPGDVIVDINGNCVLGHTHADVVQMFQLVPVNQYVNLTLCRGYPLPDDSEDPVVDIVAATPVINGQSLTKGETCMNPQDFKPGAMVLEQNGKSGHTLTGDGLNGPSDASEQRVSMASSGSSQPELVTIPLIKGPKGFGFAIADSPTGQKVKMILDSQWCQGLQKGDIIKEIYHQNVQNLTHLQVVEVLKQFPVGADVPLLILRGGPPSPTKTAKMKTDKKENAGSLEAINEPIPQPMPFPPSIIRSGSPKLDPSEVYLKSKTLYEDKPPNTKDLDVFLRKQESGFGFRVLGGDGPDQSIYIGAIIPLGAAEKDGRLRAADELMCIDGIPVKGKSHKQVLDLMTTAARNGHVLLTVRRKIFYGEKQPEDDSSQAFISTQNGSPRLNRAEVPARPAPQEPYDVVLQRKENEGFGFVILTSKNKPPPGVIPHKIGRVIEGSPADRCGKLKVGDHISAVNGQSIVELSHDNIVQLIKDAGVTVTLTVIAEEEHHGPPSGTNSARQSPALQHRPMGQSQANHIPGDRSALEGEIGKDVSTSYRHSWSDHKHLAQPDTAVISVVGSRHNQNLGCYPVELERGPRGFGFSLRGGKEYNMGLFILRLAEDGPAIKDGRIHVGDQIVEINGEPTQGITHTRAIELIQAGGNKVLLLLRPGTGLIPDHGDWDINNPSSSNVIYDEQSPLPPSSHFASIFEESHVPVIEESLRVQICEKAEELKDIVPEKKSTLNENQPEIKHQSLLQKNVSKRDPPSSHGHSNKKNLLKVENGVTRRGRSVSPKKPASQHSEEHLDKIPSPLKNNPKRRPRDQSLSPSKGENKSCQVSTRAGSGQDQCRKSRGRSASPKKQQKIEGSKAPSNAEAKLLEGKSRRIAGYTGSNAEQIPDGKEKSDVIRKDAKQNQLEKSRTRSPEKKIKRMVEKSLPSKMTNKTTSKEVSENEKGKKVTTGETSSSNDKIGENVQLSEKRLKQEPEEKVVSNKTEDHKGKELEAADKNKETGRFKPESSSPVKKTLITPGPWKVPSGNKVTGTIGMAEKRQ
UniProt O95819: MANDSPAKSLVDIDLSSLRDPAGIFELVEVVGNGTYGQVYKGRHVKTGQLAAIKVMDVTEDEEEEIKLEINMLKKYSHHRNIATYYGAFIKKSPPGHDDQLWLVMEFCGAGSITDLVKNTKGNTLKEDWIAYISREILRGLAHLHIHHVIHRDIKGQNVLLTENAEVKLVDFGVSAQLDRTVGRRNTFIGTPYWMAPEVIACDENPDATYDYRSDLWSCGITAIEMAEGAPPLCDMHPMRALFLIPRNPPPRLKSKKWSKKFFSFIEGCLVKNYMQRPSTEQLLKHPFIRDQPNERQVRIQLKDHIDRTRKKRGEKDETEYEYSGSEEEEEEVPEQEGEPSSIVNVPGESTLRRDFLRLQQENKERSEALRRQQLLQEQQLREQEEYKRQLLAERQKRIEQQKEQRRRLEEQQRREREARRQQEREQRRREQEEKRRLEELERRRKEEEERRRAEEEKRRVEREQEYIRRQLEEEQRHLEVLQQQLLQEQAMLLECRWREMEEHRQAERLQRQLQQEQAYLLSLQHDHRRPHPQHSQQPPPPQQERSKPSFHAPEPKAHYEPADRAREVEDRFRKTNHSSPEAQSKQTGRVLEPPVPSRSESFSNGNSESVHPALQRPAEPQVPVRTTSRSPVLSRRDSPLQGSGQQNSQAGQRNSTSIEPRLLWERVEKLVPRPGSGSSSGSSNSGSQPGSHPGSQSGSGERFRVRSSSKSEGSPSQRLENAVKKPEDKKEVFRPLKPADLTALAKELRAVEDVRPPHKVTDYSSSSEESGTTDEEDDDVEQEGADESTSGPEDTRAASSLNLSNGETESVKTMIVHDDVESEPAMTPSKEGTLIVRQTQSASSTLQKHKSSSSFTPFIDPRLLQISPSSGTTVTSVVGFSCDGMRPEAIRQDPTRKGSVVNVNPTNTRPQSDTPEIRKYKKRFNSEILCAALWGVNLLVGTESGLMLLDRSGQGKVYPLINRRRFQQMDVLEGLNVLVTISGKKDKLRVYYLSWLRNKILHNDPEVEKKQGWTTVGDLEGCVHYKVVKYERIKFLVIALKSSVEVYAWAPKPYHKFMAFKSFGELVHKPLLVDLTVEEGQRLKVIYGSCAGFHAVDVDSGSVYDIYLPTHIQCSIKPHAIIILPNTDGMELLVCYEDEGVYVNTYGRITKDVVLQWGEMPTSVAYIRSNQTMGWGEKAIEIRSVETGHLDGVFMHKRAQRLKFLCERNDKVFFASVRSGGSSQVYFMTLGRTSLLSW
UniProt Q9H8J5: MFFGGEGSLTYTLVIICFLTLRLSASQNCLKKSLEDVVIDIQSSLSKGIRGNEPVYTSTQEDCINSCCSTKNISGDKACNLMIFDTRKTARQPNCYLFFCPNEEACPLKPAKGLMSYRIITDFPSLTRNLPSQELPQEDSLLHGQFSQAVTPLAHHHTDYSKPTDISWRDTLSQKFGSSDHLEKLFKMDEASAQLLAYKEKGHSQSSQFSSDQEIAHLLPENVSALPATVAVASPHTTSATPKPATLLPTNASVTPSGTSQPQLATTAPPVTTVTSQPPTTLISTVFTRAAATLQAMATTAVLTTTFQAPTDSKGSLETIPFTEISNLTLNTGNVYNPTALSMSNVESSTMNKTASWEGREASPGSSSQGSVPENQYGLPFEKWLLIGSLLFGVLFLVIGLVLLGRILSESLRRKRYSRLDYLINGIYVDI
UniProt Q9UPY8, whole entry, looked up: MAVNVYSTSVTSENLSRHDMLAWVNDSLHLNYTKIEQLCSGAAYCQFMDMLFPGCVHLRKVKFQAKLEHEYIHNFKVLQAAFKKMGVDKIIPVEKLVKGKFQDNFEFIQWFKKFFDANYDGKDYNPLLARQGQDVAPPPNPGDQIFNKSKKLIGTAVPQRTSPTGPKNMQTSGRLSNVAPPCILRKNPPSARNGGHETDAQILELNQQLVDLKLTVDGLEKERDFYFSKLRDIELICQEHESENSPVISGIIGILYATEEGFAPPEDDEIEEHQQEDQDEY
UniProt P51884: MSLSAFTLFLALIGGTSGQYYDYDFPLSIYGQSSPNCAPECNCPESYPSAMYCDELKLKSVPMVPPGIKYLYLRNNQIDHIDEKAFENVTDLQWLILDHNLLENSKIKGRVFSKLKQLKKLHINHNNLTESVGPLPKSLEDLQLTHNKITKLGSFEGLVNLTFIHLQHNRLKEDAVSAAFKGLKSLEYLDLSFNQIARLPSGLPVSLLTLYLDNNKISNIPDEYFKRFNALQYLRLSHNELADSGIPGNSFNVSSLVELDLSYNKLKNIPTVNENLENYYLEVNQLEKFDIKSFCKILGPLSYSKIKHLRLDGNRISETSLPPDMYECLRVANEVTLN
UniProt Q96LZ2: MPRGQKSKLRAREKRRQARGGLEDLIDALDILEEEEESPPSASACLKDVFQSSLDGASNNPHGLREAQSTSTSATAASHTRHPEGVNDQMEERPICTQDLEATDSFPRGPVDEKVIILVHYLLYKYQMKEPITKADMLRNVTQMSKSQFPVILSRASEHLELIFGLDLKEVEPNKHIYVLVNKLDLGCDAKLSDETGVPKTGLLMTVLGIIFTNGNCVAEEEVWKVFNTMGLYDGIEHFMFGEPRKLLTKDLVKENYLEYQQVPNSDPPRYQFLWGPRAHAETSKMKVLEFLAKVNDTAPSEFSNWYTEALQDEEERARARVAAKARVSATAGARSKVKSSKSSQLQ
UniProt Q7L1W4: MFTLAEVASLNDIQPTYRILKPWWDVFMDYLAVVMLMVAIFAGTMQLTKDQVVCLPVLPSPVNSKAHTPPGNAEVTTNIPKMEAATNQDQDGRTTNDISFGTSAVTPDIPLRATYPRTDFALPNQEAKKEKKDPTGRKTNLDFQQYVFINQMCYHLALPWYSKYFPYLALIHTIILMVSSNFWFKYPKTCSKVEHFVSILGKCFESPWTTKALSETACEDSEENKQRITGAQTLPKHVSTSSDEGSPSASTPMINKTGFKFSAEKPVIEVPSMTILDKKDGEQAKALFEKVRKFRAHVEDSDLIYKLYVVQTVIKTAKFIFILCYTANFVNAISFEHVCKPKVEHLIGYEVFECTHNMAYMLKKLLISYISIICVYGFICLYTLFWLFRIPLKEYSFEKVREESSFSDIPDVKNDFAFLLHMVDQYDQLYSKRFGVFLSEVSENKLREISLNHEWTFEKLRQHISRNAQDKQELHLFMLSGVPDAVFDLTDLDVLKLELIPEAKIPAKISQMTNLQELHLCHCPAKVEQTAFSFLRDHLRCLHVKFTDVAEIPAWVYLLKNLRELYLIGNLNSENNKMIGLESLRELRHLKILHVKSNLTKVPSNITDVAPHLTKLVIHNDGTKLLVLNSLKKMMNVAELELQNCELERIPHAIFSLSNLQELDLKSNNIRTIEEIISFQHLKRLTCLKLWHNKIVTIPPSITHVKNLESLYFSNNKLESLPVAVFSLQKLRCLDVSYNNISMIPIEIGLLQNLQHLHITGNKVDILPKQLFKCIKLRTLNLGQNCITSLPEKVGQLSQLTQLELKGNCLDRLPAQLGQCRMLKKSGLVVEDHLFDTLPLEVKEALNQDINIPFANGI
UniProt P07948: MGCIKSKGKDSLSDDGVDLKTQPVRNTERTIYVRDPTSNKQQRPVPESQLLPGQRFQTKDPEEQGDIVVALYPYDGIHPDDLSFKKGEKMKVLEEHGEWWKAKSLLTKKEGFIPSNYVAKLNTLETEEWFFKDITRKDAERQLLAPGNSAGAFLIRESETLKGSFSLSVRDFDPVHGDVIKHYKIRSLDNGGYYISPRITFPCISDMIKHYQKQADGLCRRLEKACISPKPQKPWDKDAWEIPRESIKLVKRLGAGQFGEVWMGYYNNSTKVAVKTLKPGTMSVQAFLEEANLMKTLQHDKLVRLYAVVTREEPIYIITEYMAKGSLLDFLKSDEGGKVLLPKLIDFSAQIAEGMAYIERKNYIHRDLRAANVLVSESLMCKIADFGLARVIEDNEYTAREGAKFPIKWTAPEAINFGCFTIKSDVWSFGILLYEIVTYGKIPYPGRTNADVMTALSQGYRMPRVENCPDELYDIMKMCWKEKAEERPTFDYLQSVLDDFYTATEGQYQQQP

Compound: C1=CC=C(C=C1)[C@H](COC2=CC3=C(C=C2)NC(=O)N3)NC(=O)C4=CC=CN(C4=O)CC5=CC(=C(C=C5)F)F
Experiment: log2 fold change, soluble protein after heating vs DMSO (PISA); higher = thermal stabilisation; K562 cells, 10 uM, 30 min; active = over 0.2 and 3.5 SD of the protein, either way, in both replicates (recomputed)
Procedure, shortened: (§1)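 Aliquots of K562 cells (2×10^6 cells/mL) treated with 10 μM compound for 30 min were heated for 3 min over 48°C-58°C. After pooling and extraction in PBS with 0.5% NP-40 at 4°C, soluble protein from a 21,000xg, 90 min spin was quantified by TMTpro 16plex LC-MS/MS with channel sums equalised. Thermal stability is expressed against control samples, from duplicates, as a log2 fold change.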

Row | Target | log2 fold change
1 | MAP4K3 (UniProt Q8IVH8) | inactive: 0.459
2 | LSM10 (UniProt Q969L4) | inactive: -0.023
3 | MAN2B2 (UniProt Q9Y2E5) | inactive: 0.097
4 | MAFF (UniProt Q9ULX9) | inactive: 0.06
5 | MAP3K10 (UniProt Q02779) | inactive: -0.021
6 | MAGI3 isoform 1 (UniProt Q5TCQ9) | inactive: -0.007
7 | MAPT isoform 9 (UniProt P10636) | inactive: -0.036
8 | LYST (UniProt Q99698) | inactive: 0.003

Compound: CC1=C(SC2=C1C(=N[C@H](C3=NN=C(N32)C)CC(=O)N)C4=CC=C(C=C4)Cl)C
Experiment: as above
Procedure, shortened: as §1

Row | Target | log2 fold change
9 | MAML1 (UniProt Q92585) | inactive: 0.018
10 | MAP4K4 isoform 6 (UniProt O95819) | inactive: 0.177
11 | LTBP4 (UniProt Q8N2S1) | inactive: 0.095
12 | LRRFIP1 isoform 4 (UniProt Q32MZ4) | inactive: -0.204
13 | MANSC1 (UniProt Q9H8J5) | inactive: 0
14 | LSR isoform 3 (UniProt Q86X29) | inactive: -0.073
15 | MAP2K5 (UniProt Q13163) | inactive: 0.053
16 | LSG1 (UniProt Q9H089) | inactive: -0.093
17 | MAPRE3 isoform 2 (UniProt Q9UPY8) | inactive: 0.033
18 | LSM11 (UniProt P83369) | inactive: -0.094
19 | MAP3K3 isoform 2 (UniProt Q99759) | inactive: 0.106
20 | LRRC8C (UniProt Q8TDW0) | inactive: -0.024
21 | MAD2L2 (UniProt Q9UI95) | inactive: 0.166
22 | MAGED1 isoform 2 (UniProt Q9Y5V3) | inactive: 0.031
23 | LUM (UniProt P51884) | inactive: -0.05
24 | MAGEB10 (UniProt Q96LZ2) | inactive: -0.195
25 | MAFG (UniProt O15525) | inactive: -0.024
26 | LRRC8D (UniProt Q7L1W4) | inactive: -0.21
27 | LYN isoform 2 (UniProt P07948) | inactive: 0.018

Compound: CC1=C2C(=CC=C1)N=C(N(C2=O)C3=CC=CC=C3C)CN4C=NC5=C(N=CN=C54)N
Experiment: as above
Procedure, shortened: as §1

Row | Target | log2 fold change
28 | MAML1 (UniProt Q92585) | inactive: 0.15
29 | MAP4K4 isoform 6 (UniProt O95819) | inactive: 0.049
30 | MAP4K3 (UniProt Q8IVH8) | inactive: 0.072
31 | LSG1 (UniProt Q9H089) | inactive: 0.013
32 | MAN2B2 (UniProt Q9Y2E5) | inactive: 0.096
33 | MAP3K3 isoform 2 (UniProt Q99759) | inactive: 0.048
34 | MAFF (UniProt Q9ULX9) | inactive: 0.023
35 | MAP3K10 (UniProt Q02779) | inactive: 0.111
36 | MAGED1 isoform 2 (UniProt Q9Y5V3) | inactive: 0.148
37 | LSM14A, A0A140TA76 | inactive: 0.023
38 | LUM (UniProt P51884) | inactive: 0.087
39 | LSR (UniProt M0QZL9) | inactive: 0.054
40 | MAGEB10 (UniProt Q96LZ2) | inactive: -0.211
41 | MAFG (UniProt O15525) | inactive: -0.137
42 | LRRC8D (UniProt Q7L1W4) | inactive: -0.092
43 | LYN isoform 2 (UniProt P07948) | inactive: -0.097
44 | MAGI3 isoform 1 (UniProt Q5TCQ9) | inactive: 0.053
45 | MAPT isoform 9 (UniProt P10636) | inactive: 0.142
46 | LYST (UniProt Q99698) | inactive: 0.417

Compound: Cc1sc2c(c1C)C(c1ccc(Cl)cc1)=N[C@@H](CC(=O)OC(C)(C)C)c1nnc(C)n1-2
Experiment: as above
Procedure, shortened: as §1

Row | Target | log2 fold change
47 | MAP4K4 isoform 6 (UniProt O95819) | inactive: -0.037
48 | LTBP4 (UniProt Q8N2S1) | inactive: -0.015
49 | MAPK11 (UniProt Q15759) | inactive: -0.014
50 | MANSC1 (UniProt Q9H8J5) | inactive: 0.122
51 | MAP3K20 isoform 2 (UniProt Q9NYL2) | inactive: -0.033
52 | LSR isoform 3 (UniProt Q86X29) | inactive: -0.067
53 | LSG1 (UniProt Q9H089) | inactive: 0.136
54 | MAPRE3 isoform 2 (UniProt Q9UPY8) | inactive: 0.279
55 | LSM10 (UniProt Q969L4) | inactive: 0.034
56 | MAN2B2 (UniProt Q9Y2E5) | inactive: 0.074
57 | MAP3K3 isoform 2 (UniProt Q99759) | inactive: 0.104
58 | MAP3K10 (UniProt Q02779) | inactive: -0.182
59 | LRRCC1 (UniProt Q9C099) | inactive: 0.046
60 | LSM14A, A0A140TA76 | inactive: -0.113
61 | LUM (UniProt P51884) | inactive: 0.144
62 | MAGEB10 (UniProt Q96LZ2) | inactive: 0.268
63 | LRRC8D (UniProt Q7L1W4) | inactive: 0.213
64 | MAGI3 isoform 1 (UniProt Q5TCQ9) | inactive: 0.029
65 | MAPKAP1 (UniProt Q9BPZ7) | inactive: -0.504

Compound: c1ccc([C@@H]2C[C@H]2NC2CCNCC2)cc1
Experiment: as above
Procedure, shortened: as §1

Row | Target | log2 fold change
66 | MAML1 (UniProt Q92585) | inactive: 0.077
67 | MAP4K4 isoform 6 (UniProt O95819) | inactive: 0.076
68 | LTBP4 (UniProt Q8N2S1) | inactive: 0.113
69 | LRRFIP1 isoform 4 (UniProt Q32MZ4) | inactive: 0.009
70 | MANSC1 (UniProt Q9H8J5) | inactive: -0.036
71 | LSR isoform 3 (UniProt Q86X29) | inactive: -0.101
72 | MAP2K5 (UniProt Q13163) | inactive: -0.034
73 | LSG1 (UniProt Q9H089) | inactive: -0.012
74 | MAPRE3 isoform 2 (UniProt Q9UPY8) | inactive: 0.017
75 | LSM11 (UniProt P83369) | inactive: 0.012
76 | MAP3K3 isoform 2 (UniProt Q99759) | inactive: -0.023
77 | LRRC8C (UniProt Q8TDW0) | inactive: 0.067
78 | MAD2L2 (UniProt Q9UI95) | inactive: -0.003
79 | MAGED1 isoform 2 (UniProt Q9Y5V3) | inactive: -0.01
80 | LUM (UniProt P51884) | inactive: 0.143
81 | MAGEB10 (UniProt Q96LZ2) | inactive: -0.025
82 | MAFG (UniProt O15525) | inactive: 0.003
83 | LRRC8D (UniProt Q7L1W4) | inactive: -0.048
84 | LYN isoform 2 (UniProt P07948) | inactive: 0.033
